Test results reported in article PMC9307415.
These are yes or no findings as the source states them, for the method shown. Binding seen in cells or lysates may run through a third protein. Some entries that bind do so weakly or less than the wild type.

Chains of the proteins cited; added tags and fusions are not shown. Lines headed by an entry give the natural chain unless they say otherwise; changes in a name come on top.
UniProt Q05655: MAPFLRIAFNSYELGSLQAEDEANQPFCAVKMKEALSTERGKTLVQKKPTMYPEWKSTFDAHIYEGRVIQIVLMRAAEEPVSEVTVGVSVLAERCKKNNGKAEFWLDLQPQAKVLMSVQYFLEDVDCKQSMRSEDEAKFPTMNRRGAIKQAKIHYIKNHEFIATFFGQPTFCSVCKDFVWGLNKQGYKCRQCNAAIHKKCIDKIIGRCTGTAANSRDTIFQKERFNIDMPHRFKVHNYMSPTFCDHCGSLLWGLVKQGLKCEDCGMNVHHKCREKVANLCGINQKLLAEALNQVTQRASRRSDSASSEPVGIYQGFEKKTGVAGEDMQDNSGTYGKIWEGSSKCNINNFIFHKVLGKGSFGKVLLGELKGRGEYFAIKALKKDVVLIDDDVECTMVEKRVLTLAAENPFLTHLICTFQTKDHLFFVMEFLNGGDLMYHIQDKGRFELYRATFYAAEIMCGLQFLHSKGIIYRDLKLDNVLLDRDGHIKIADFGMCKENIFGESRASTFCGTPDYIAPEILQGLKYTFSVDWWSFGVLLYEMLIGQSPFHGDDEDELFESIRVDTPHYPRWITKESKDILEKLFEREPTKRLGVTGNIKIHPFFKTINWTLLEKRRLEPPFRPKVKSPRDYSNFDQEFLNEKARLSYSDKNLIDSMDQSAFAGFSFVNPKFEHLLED
UniProt P14598: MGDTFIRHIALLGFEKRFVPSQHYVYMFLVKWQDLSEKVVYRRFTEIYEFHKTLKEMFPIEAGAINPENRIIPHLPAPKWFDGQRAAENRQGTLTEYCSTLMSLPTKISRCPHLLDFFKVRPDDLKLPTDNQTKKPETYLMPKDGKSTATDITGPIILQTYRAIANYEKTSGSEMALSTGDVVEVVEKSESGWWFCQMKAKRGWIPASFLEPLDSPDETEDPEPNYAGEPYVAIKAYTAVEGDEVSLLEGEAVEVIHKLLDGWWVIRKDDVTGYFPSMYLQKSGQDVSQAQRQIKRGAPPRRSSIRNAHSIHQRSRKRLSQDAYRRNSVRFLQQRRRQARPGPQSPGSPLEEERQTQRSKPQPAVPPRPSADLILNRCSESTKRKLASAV

Molecular target: protein kinase C delta (PKC-δ) (human (endogenous in SHSY5Y)) (UniProt Q05655)
Test: co-IP; whole cell lysates of SHSY5Y cells (control, OGD/R, OGD/R with 2.5 μM C+P; 6 and 24 hours of reoxygenation); anti-PKC-δ or control IgG overnight at 4°C, protein G magnetic beads; Western blot for PKC-δ and p47phox

binding: binds
Substance: p47phox (NADPH oxidase subunit) (from UniProt P14598 1-390)
